Each number is a percent effect as filed. How 0% and 100% were set is not recorded. Most values in the screen are low, and negative values occur. This is an unselected part of the compounds tested. Two or more numbers in one place are separate tests of the same structure; such repeats can differ widely.

Mtb cholesterol medium: 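Whole-cell growth test on Mycobacterium tuberculosis, read after 4 days in a medium based on cholesterol and the lipid DPPC; the read-out is not stated. Concentration: 50 µM. Direction is inferred from retests: higher values go with more growth inhibition. Size under these conditions: about 69,000 compounds, about 370 of them at 50% or above in at least one test.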
Mtb glucose medium: 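Whole-cell growth test on Mycobacterium tuberculosis, read after 3 days in glucose-containing 7H9 medium; the read-out is not stated. Tested at 50 µM. The record gives no direction; compounds that gave an IC50 in retests scored well above the rest, so higher reads as more growth inhibition. About 69,000 compounds were tested under these conditions; 1.1% (about 760) showed 50% or more at least once.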

structure | Mtb cholesterol medium | Mtb glucose medium
O=C(O)C(F)(F)F.[H][C@@]12COC[C@]1([H])[C@@H](OCC(=O)N(C)C)CN2Cc1ccoc1 | -7.366 | -4.461
c1cnc(-c2nn3c(CN4CCCCCC4)nnc3s2)cn1 | -13.38 | -8.816
O=C(NCCNc1ncccn1)N1CCCC1c1ccc(F)cc1 (centres undefined) | 3.982 | -10.84
Cc1ccc2c(-c3nc4c([nH]3)CCNC4C(=O)O)cccc2n1 (centres undefined) | 3.965 and 6.267 | 18.75
CCOc1ncccc1C(=O)Nc1c(C)cnn1CC1CC1 | 0.1676 and 20.68 | -7.723
Cc1nn(CCO)c(C)c1CNCc1cccnc1N(C)C | 1.853 | -1.946 and 13.74
Cc1nn(C)c(C)c1C1CCCN1C(=O)c1nccnc1N (centres undefined) | 12.47 | 14.31
CCNC(=O)N1CCC(OC)c2ccccc2N(CC(=O)NC)C(=O)C1 (centres undefined) | 2.635 | 7.617
CCn1nc(C)c(CNC(=O)c2nnc3ccc(OC)cc3n2)c1C | 0.8838 | 10.05
CC(C)c1ccc2c(c1)CCCN2C(=O)CN(C)S(C)(=O)=O | -15.63 | -16.46
COc1ccc(NC2CCCN(Cc3cnc(N(C)C)s3)C2)cc1OC (centres undefined) | 23.95 | -6.406 and 6.146
COc1cc(CNc2ccccc2Cl)ccc1OCC(=O)O | -1.105 | -19.59
[H][C@@]12OCCN(S(=O)(=O)C3CC3)[C@@]1([H])CC[C@H]2OCC1CC1 | -26.66 | -62.72
COc1ccc2c(c1)C(=O)CC1(CCN(Cc3ccc(F)cc3)CC1)O2 | 6.391 | 8.445
Cc1cnccc1CN1C[C@@H](O)[C@H](Oc2cccc(F)c2)C1 | 28.8 | 30.51
Cc1ccc(F)cc1CC(=O)N(CCN1CCOCC1)Cc1ccco1 | 0.6838 and -10.28 | -3.158
Cc1nc(NCC2CCOCC2)cc(C2CCN2S(C)(=O)=O)n1 (centres undefined) | -0.823 and 15.82 | 15.38
CCCSc1ncccc1C(=O)NCc1ccc(S(N)(=O)=O)cc1 | -45.11 | -54.04
CCOCc1cnc2n1CCN(Cc1scnc1C)C2C.O=C(O)C(F)(F)F (centres undefined) | -7.303 | 9.445
COc1ccccc1OC1CCN(Cc2cccnc2)CC1 | -9.759 | -3.182
Cn1cccc1C(=O)NCc1cnc2n1CCN(CC1CC1)C2.O=C(O)C(F)(F)F | -14.63 | -29.05 and -7.184
CC(=O)c1cccc(NC(=O)Cn2cc(-c3ccccc3)ncc2=O)c1 | -20.27 | -19.66
Cc1ccc2nc(NCCN3CCOCC3)n(C)c(=O)c2c1 | 12.27 | 7.534
CN(C)CCN1CCc2c(nnn2C)C1COCc1ccccc1.O=C(O)C(F)(F)F.O=C(O)C(F)(F)F (centres undefined) | -24.4 and -43.76 | -35.01
O=C(c1c[nH]nn1)N1CCN(C(c2ccccc2)C(F)(F)F)CC1 (centres undefined) | -25.98 | 7.664 and -54.5
O=C(NC1CCS(=O)(=O)C1)c1sccc1-c1ccc(F)cc1 (centres undefined) | -14.38 | -12.5
c1cc(CN2CCN(Cc3cscn3)CC2)cs1 | -16.24 | -0.7482
COc1cccc(NC(=O)CN2CCN(S(C)(=O)=O)CC2)c1 | -11.89 | -14.3 and 0.501
CCCN1CCCn2nc(CNC(=O)CCc3scnc3C)cc2C1 | 7.813 | 5.302 and -2.829
COC(=O)c1ccc(CNCc2cn(C)nc2C)cc1 | -3.09 | -3.591
CN(C)C1CCCN(C(=O)NCCNC(=O)C2CCCCC2)C1 (centres undefined) | -4.456 | -5.029
CCc1nc(N)nc(N2CCCC3(CN(C)C(=O)O3)C2)c1C (centres undefined) | 1.946 | 8.791 and 4.883
Cc1cnc(CN(C)C2CCCN(c3cccnn3)C2)cn1 (centres undefined) | 6.602 | -2.798
COc1cc(N2CCCC(CO)(Cc3ccccc3F)C2)ncn1 (centres undefined) | 9.797 | 41.44
CC[C@@]1(O)CCN(C(=O)CN(C)Cc2ccc(F)cc2)C[C@H]1O | -17.87 | -9.19 and -69.65
CNc1ncc(CN(C)C(=O)c2cccc(Cn3cccn3)c2)cn1 | 11.38 | -19.22
Cc1nc(O)c2nnn(C[C@H]3CCCN3C(=O)c3ccc(F)cc3)c2n1 | -8.647 | 1.097
CC(C)N(C)CC(=O)Nc1ccc(-n2ccc(C(N)=O)n2)cc1 | -10.09 | -3.263 and -1.664
O=C(CC1CCN(CCc2ccccc2)CC1)NC1CCOCC1 | 15.84 | 30.19
O=C(O)C(F)(F)F.O=C(O)C(F)(F)F.[H][C@@]12CCN(Cc3cccc(C)n3)C[C@]1(C(=O)N1CCCO1)CCO2 | -18.34 | -19.85
C[C@H]1CN(C(=O)c2ccc[nH]2)C[C@@]12CCN(c1ccsc1)C2=O | -17.23 and -6.079 | -12.65
COCC(C)NC(=O)c1nnn(-c2ccc(Br)cc2)n1 (centres undefined) | 30.8 | 14.13
CC1COCCN1Cc1nc(-c2ccc(Br)s2)no1 (centres undefined) | -10.58 | 3.103 and 12.98
O=C(NC1CCCCC1)N1CCC(n2cc(-c3ccccn3)nn2)CC1 | 33.85 | 13.65 and 1.601
O=C(O)C(F)(F)F.[H][C@@]12COC[C@]1([H])[C@@H](OCC(=O)N(C)C)CN2Cc1ccc(CC)o1 | 10.19 | 32.09
Cc1ccc(S(=O)(=O)c2ncccc2CN2CCN(C)CC2)cc1 | -28.93 | 18.89
O=C(O)C(F)(F)F.O=C(c1ccsc1)N1CCc2onc(COc3ccccn3)c2C1 | -15.08 | -11.07 and -36.07
[H][C@]12CCN(C(=O)c3ccccc3)CC[C@@]1([H])S(=O)(=O)N(CC(=O)N(C)C)C2 | 12.25 and 8.82 | -1.121 and 21.82
[H][C@@]12CN(C)CCO[C@]1([H])CN(Cc1nc(C)cs1)C2 | 2.159 | 24.97
CC(=O)N1CCOC2(CCCN(C(=O)c3ccc(Cl)cc3)C2)C1 (centres undefined) | 28.12 and -8.628 | 33.3
O=C(Cc1noc2ccccc12)N1CCC(Nc2cccnn2)CC1 | -22.91 | 3.506
CCNC(=O)[C@H]1CN(Cc2ccccc2)C[C@@H]1C(=O)c1ccccc1 | 3.71 and 14 | 5.691
Cc1ccc(Nc2cc(N3CCN(S(C)(=O)=O)CC3)nc(C)n2)cc1 | 5.573 | 22.66
Cl.NCC1(c2cccc(Br)c2)CCOCC1 | -0.6872 and -23.45 | -37.07
CCc1cc(N(C)Cc2noc(C(C)C)n2)nc(N2CCOCC2)n1 | 1.392 | 12.7
CC(=O)c1cccc(NC(=O)COc2c(C)n(C)ccc2=O)c1 | 10.92 | 16.97
CN(C)CCCNCCC(c1ccccc1)C1CCOC(C)(C)C1.O=C(O)C(=O)O (centres undefined) | -21.95 | 13.07 and 6.953
CC(C)(C)n1cc(C(=O)N2CCN(Cc3cccnc3)CC2)cn1 | 16.74 | -1.586
CN(C)c1cc(C2CCCN(C(=O)Cn3cc(Cl)cn3)C2)ccn1 (centres undefined) | -3.04 | 8.116
COCCc1noc(CNC(=O)C2CC(=O)N(C(C)(C)C)C2)n1 (centres undefined) | -9.368 | 25.66
CCc1nc(C(=O)N(C)CC(=O)N(C)C)nn1-c1ccccc1Cl | -8.623 | -33.08
Cc1nccn1-c1nccnc1C1CCN(Cc2ccc(F)cc2)CC1 | -27.48 | -15.64
CCc1noc(CN2CCN(C(=O)c3ccccn3)CC2)n1 | 6.168 | 1.21
COC(=O)[C@@H]1C[C@H](NC(=O)c2cc(=O)[nH]c3ccc(C)cc23)CN1C | -10.66 | -4.202 and 0.7087
CSc1ccc(NC(=O)NCC(O)C(C)C)cc1F (centres undefined) | -10.33 | 11.62 and 1.429
COc1ccc(Cl)cc1CS(=O)(=O)Cc1nc(C2CC2)no1 | -29.01 | -24.52
CC(C)(O)CN1CCN(C(=O)c2cccc3cccnc23)CC1 | 2.024 | -32.45
COC(=O)CSc1nnc(CCNC(=O)OC(C)(C)C)o1 | -7.349 | -7.419
Cc1cccc(N2CCOCC3(C2)CN(c2ccccc2)C(=O)CO3)n1.O=C(O)C(F)(F)F (centres undefined) | 7.38 | 21.64
CNS(=O)(=O)c1cccc(CNc2ccc(C#N)cn2)c1 | -17.03 | -11.07
O=C(O)C(F)(F)F.[H][C@@]12C[C@@H](C)O[C@]1([H])CN(Cc1c(C)noc1C)C2 | 5.367 | 10.49
Cc1cccc(C)c1OCCNC(=O)CN1CCN(C)CC1C (centres undefined) | -24.06 | -24.63
c1ccc(-c2cc(CNCCCN3CCCCC3)c3nnnn3c2)cc1 | -8.876 | -7.75
CN(CCCc1cnn(C)c1)Cc1cc2n(n1)CCNC2 | 4.038 | -9.117
CCc1ncc(C(=O)N(CCOC)Cc2ccccc2F)cn1 | 7.914 | -3.299
CCc1ccc(C(COC)NC(=O)c2ccc(F)c(NC(C)=O)c2)o1 (centres undefined) | 12.63 | 0.293
Cc1cn2c(n1)CCC(NS(=O)(=O)c1cc(C)sc1C)C2 (centres undefined) | 8.209 | -5.917 and 3.155
N#Cc1ccc(SCCC(=O)Nc2ccc(CC(N)=O)cc2)cc1 | -19.53 | -3.153 and 7.551
CC(C)(C)CN1CCCC(c2nccnc2Nc2cnccn2)C1 (centres undefined) | -0.7074 | 4.836
CN(Cc1ccc2nsnc2c1)C(=O)CCc1cc2n(n1)CCCNC2 | 1.98 | 28.22
CC(C)CC(O)C1CCN(C(=O)c2coc(CN3CCOCC3)c2)CC1 (centres undefined) | -7.63 | -31.45

Some entries from above, unchanged:

* CN(C)CCN1CCc2c(nnn2C)C1COCc1ccccc1.O=C(O)C(F)(F)F.O=C(O)C(F)(F)F (centres undefined) | Mtb cholesterol medium: -24.4% and -43.76%; Mtb glucose medium: -35.01%
* CC(C)CC(O)C1CCN(C(=O)c2coc(CN3CCOCC3)c2)CC1 (centres undefined) | Mtb cholesterol medium: -7.63%; Mtb glucose medium: -31.45%
* CC(C)(C)CN1CCCC(c2nccnc2Nc2cnccn2)C1 (centres undefined) | Mtb cholesterol medium: -0.7074%; Mtb glucose medium: 4.836%
* O=C(CC1CCN(CCc2ccccc2)CC1)NC1CCOCC1 | Mtb cholesterol medium: 15.84%; Mtb glucose medium: 30.19%
* CCc1ccc(C(COC)NC(=O)c2ccc(F)c(NC(C)=O)c2)o1 (centres undefined) | Mtb cholesterol medium: 12.63%; Mtb glucose medium: 0.293%
* COc1ccc(NC2CCCN(Cc3cnc(N(C)C)s3)C2)cc1OC (centres undefined) | Mtb cholesterol medium: 23.95%; Mtb glucose medium: -6.406% and 6.146%
* O=C(c1c[nH]nn1)N1CCN(C(c2ccccc2)C(F)(F)F)CC1 (centres undefined) | Mtb cholesterol medium: -25.98%; Mtb glucose medium: 7.664% and -54.5%
* [H][C@@]12CN(C)CCO[C@]1([H])CN(Cc1nc(C)cs1)C2 | Mtb cholesterol medium: 2.159%; Mtb glucose medium: 24.97%
* CN(CCCc1cnn(C)c1)Cc1cc2n(n1)CCNC2 | Mtb cholesterol medium: 4.038%; Mtb glucose medium: -9.117%
* CN(Cc1ccc2nsnc2c1)C(=O)CCc1cc2n(n1)CCCNC2 | Mtb cholesterol medium: 1.98%; Mtb glucose medium: 28.22%

Measurements from “University of Dundee, Small-Polar-MMV Screening Library” (2021), ChEMBL document CHEMBL3988442.